Reference: PubChem BioAssay AID743255 (National Center for Advancing Translational Sciences (NCATS), 2014)
Out of some 390,000 compounds screened, about 910 (0.23%) were called active. The shares of active, inactive and inconclusive entries below differ from those in the screen. Calls follow the shape of the dose curve; as a rule, active = well fitted inhibition curve with a large enough effect; inconclusive = small, poorly fitted or top-dose-only effect; inactive = no such curve, though single readings can be large or run the other way. Potencies beside an inconclusive call are fits to weak or partial responses and may not hold up.

Protein sequences, listed by entry. Tags and fused reporters are not part of them. Lines headed by an entry give the natural chain unless they say otherwise; changes in a name come on top.
UniProt O94782: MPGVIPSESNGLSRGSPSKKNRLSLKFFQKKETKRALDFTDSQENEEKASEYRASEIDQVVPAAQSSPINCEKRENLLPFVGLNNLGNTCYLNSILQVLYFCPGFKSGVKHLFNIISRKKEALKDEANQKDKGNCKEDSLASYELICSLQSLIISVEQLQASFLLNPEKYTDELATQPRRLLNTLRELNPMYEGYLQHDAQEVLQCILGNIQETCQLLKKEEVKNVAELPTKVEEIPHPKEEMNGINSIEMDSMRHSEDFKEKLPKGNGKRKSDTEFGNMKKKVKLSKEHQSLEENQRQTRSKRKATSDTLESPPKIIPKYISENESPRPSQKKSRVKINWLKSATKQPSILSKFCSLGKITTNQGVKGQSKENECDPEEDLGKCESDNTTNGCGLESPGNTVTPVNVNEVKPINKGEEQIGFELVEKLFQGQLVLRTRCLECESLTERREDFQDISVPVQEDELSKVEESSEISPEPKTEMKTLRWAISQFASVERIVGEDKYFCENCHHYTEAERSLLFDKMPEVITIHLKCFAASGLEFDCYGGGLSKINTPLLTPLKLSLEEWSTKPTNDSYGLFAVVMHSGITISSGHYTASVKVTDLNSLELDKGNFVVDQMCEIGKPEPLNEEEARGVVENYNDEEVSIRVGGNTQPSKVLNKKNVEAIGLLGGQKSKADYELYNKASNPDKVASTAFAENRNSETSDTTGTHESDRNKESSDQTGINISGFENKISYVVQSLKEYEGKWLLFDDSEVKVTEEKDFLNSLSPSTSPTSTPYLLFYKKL

Each molecule was assayed against Ubiquitin carboxyl-terminal hydrolase 1 (Homo sapiens) (UniProt O94782) (assay: Inhibitors of USP1/UAF1: Primary Screen). Conditions: recombinant USP1/UAF1, Ub-Rhodamine cleavage fluorescence; series mostly up to 57.1 µM.
How it was run: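 In this screen, compounds sit with the deubiquitinase complex (1nM) for 15 min at room temperature before Ub-Rho is added at 150nM final. Fluorescence rise is then followed for 6 reads every 60 seconds.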
Also: nearly all actives have a fitted effect of over 60% in size.
Potency is read from the fitted curve at half-maximal effect.

Potency, active:
CCOC(=O)C1=C(C)OC2(O)c3ccccc3C(=O)C12O (centres undefined) 12.6 µM
Cc1oc2c(c1C(=O)O)C(=O)c1ccccc1C2=O 28.2 µM

Potency, inconclusive:
Cn1c(=O)c2c(nc(Oc3ccccc3)n2Cc2c(Cl)cccc2Cl)n(C)c1=O 31.6 µM [inhibitor, partial curve]
C=CCOc1ccc(/C=C/C(=O)OCC(=O)N(C)CC(=O)Nc2ccccc2Cl)cc1 10 µM [inhibitor, full curve]
COc1cc(OC)c2c(O)c3c(c(-c4c5c(c(O)c6c(OC)cc(OC)cc46)CO[C@@H](C)[C@H]5O)c2c1)[C@H](O)[C@H](C)OC3 44.7 µM [inhibitor, partial curve, poor fit]
O=C(COCc1cc(-c2ccc3c(c2)OCO3)on1)NCc1ccccc1Cl 8.91 µM [inhibitor, partial curve, poor fit]
O=C(CCCOc1ccccc1)Nc1ccc(Cl)cn1 8.91 µM [inhibitor, single point]
Brc1ccc(CN2CC[C@H]3C=CCc4cccc(c43)C2)cc1 7.08 µM [inhibitor, partial curve]
CCn1cc(C(=O)OCC(=O)Nc2ccccc2OC(F)F)c(=O)c2ccc(C)nc21 2 µM [inhibitor, partial curve]
OCCCNc1cc(-c2ccccc2)nc2cc(-c3ccc(F)cc3)nn12 31.6 µM [inhibitor, partial curve]
O=C(/C=C/c1ccc2c(c1)OCO2)c1ccc(F)cc1 70.8 µM [inhibitor, partial curve, poor fit]
CC(C)=C1SC(N2CCN(c3ccc(C)c(Cl)c3)CC2)=NC1=O 0.398 µM [inhibitor, full curve, poor fit]
O=C(C1=NN[C@@H]2C(=O)N(c3cccc(C(F)(F)F)c3)C(=O)[C@H]12)C(c1ccccc1)c1ccccc1 44.7 µM [inhibitor, partial curve, poor fit]
Cc1cc(C(=O)NCc2ccc(Cl)cc2)c2c(C)nn(-c3ccccc3)c2n1 5.01 µM [inhibitor, partial curve]
Cc1ccc(C2C(C#N)=C(N)SC(N)=C2C#N)cc1 28.2 µM [inhibitor, partial curve]
Cc1cc(C)nc(SC2CCCCC2O)n1 (centres undefined) 7.94 µM [inhibitor, single point]
COc1ccccc1C(=O)N/C(=C/c1cccc([N+](=O)[O-])c1)C(=O)Nc1cccc(C(=O)O)c1 7.94 µM [inhibitor, partial curve, poor fit]
COc1ccc(N2C(=O)/C(=C/N(C)C)NC2=S)cc1 7.94 µM [inhibitor, partial curve, poor fit]
CN(Cc1ccccc1)C(=O)c1cccc(NC(=O)Cc2ccc(NC(=O)C3CCN(C(=O)C4CCC4)CC3)cc2)c1 50.1 µM [inhibitor, partial curve, poor fit]
O=C(O)CNC1=NCCCCC1 15.8 µM [inhibitor, partial curve, poor fit]
Cc1ccc(NC(=O)CS(=O)CC(=O)N(c2ccccc2)C(C)C(=O)NC2CCCC2)cc1 (centres undefined) 31.6 µM [inhibitor, partial curve]
Cc1onc(-c2ccccc2)c1C(=O)Nc1nnc(N(C)Cc2ccccc2)s1 0.562 µM [inhibitor, full curve, poor fit]
Fc1ccc(CNc2nc(-c3ccccc3)nc3ccccc23)cc1 44.7 µM [inhibitor, partial curve, poor fit]
COc1cc(/C=C(\C#N)c2nc3ccccc3o2)ccc1O 31.6 µM [inhibitor, partial curve]
Cc1coc2cc3oc(=O)c(CC(=O)NCCc4ccccc4)c(C)c3cc12 50.1 µM [inhibitor, partial curve, poor fit]
Cc1cc(=O)[nH]c(=S)[nH]1 0.282 µM [inhibitor, full curve]
O=C(C1CCC1)N1CCc2cc(S(=O)(=O)NCc3ccc(F)cc3)ccc21 79.4 µM [inhibitor, partial curve, poor fit]
Cc1ccc(C(=O)O)cc1N1C(=O)c2cccc3c([N+](=O)[O-])ccc(c23)C1=O 35.5 µM [inhibitor, partial curve, poor fit]
CC(=O)N1CCN=C1SCc1ccccc1F 0.282 µM [inhibitor, full curve, poor fit]
CC(C)[C@H](CN1CCC[C@H]1CN1C(N)=NC[C@H]1C(C)C)N1C[C@@H](Cc2ccccc2)N(CCCC2CCCC2)C1=N 50.1 µM [inhibitor, partial curve, poor fit]
CC(C)CC(=O)Nc1c(C(=O)N2CCN(c3ccccc3)CC2)oc2ccccc12 50.1 µM [inhibitor, partial curve, poor fit]
O=C(COC(=O)c1ccc([N+](=O)[O-])o1)NC12CC3CC(CC(C3)C1)C2 56.2 µM [inhibitor, partial curve, poor fit]
CC(=O)c1cccc(NC(=O)c2noc3c2CCCC3)c1 0.355 µM [inhibitor, full curve, poor fit]
CC(C)n1c(=N)c(C(=O)NCc2ccccc2)cc2c(=O)n3ccccc3nc21 50.1 µM [inhibitor, partial curve, poor fit]
COc1cc(NC(=O)c2cc(S(=O)(=O)N3CCc4ccccc43)cn2C)cc(OC)c1OC 3.16 µM [inhibitor, full curve, poor fit]
CC1(OC(=O)C2CCCC2)C(=O)C=C2C=C(c3ccsc3)N(CCCCO)C=C2C1=O (centres undefined) 56.2 µM [inhibitor, partial curve, poor fit]
COc1ccc(C(=O)Cn2c(=O)c(-c3cc(C)ccc3NC(C)=O)nc3ccccc32)cc1 447 µM [inhibitor, partial curve, poor fit]
COc1ccc(OC)c(NC(=O)/C=C/c2ccc(C)o2)c1 50.1 µM [inhibitor, partial curve, poor fit]
CCOc1ccccc1NC(=O)Cn1c(=O)n(-c2cccc(C)c2)c(=O)c2c1c1cc(OC)ccc1n2C 0.398 µM [inhibitor, full curve]
Cc1ccc(C(=O)Nc2ccc(N3CCN(S(C)(=O)=O)CC3)cc2)cc1 7.08 µM [inhibitor, single point]
CCN1/C(=C2/SC(=S)N(NC(C)=O)C2=O)Sc2ccccc21 35.5 µM [inhibitor, single point]
COc1cc(-c2ccc(Nc3ccccc3C(=O)O)c(OC)c2)ccc1Nc1ccccc1C(=O)O 35.5 µM [inhibitor, partial curve]
COC(=O)C1=C(C)N(Cc2ccccc2)C(=NCCc2cccnc2)N[C@H]1c1ccccc1 44.7 µM [inhibitor, single point]
CNc1ccc(Br)cc(C(=O)/C=C/c2ccc(Cl)cc2Cl)c1=O 31.6 µM [inhibitor, partial curve, poor fit]
N/C(Cc1cccc2ccccc12)=N\OC(=O)c1ccc2c(c1)OCO2 44.7 µM [inhibitor, partial curve]
CC(C)CN1CN(Cc2ccccc2)CNC1=S 70.8 µM [inhibitor, partial curve, poor fit]
N#CC1=C(N)Oc2ccc3ccc(O)cc3c2C1c1cccnc1 (centres undefined) 0.282 µM [inhibitor, full curve, poor fit]

Arranged by length of the SMILES (low to high): 4 of the compounds above.
Potency, inconclusive:
CC(C)CN1CN(Cc2ccccc2)CNC1=S 70.8 µM [inhibitor, partial curve, poor fit]
Cc1ccc(C2C(C#N)=C(N)SC(N)=C2C#N)cc1 28.2 µM [inhibitor, partial curve]
OCCCNc1cc(-c2ccccc2)nc2cc(-c3ccc(F)cc3)nn12 31.6 µM [inhibitor, partial curve]
CC(C)CC(=O)Nc1c(C(=O)N2CCN(c3ccccc3)CC2)oc2ccccc12 50.1 µM [inhibitor, partial curve, poor fit]

Next part:

Potency, inactive:
Cc1c(C(=O)NC(C)C)oc2c1-c1[nH]ncc1CC2
Cc1ccccc1S(=O)(=O)Cc1ccc(C(=O)N2CCN(C3CCCCC3)CC2)o1
O=C(CCS(=O)(=O)c1ccccc1)Nc1ncc([N+](=O)[O-])s1
CCOC(=O)c1cnc2ccc(C(=O)OC)cc2c1Nc1cccc(C(=O)O)c1
Cc1cc(N2C(=O)C(O)=C(C(=O)c3ccc(C)o3)C2c2cccc(Oc3ccccc3)c2)no1 (centres undefined)
Cc1ccc(C(C)NC(=O)c2cccs2)cc1 (centres undefined)
COc1ccccc1/C=C(/C(=O)OCC(=O)Nc1ccccc1C)c1ccccc1
COc1ccccc1NC(=O)c1ccccc1NS(=O)(=O)c1cccs1
Cc1ccc2c(CN3CCCCC3)cc(=O)oc2c1C
COc1ccccc1NC(=O)CSc1nnc(-c2ccoc2C)o1
COCCNC(=O)CS(=O)Cc1nc(-c2ccccc2C)oc1C (centres undefined)
CCOc1ccc(CCNC(=O)c2cc3c(-c4ccc(OC)c(OC)c4)nn(C)c3s2)cc1OCC
CCCOC(=O)c1c(N)sc(C(=O)OCC)c1C
COC(=O)c1ccc(-c2nc3ccccc3[nH]2)cc1
COc1ccccc1C(=O)Nc1ccc2c(c1)CCCN2C(=O)c1cccs1
CC(C)c1ccc(Nc2c([N+](=O)[O-])c(=O)n(C)c3ccccc23)cc1
CCOC(=O)Cn1cc(/C=C(\C#N)C(=O)N2CCOCC2)c2ccccc21
